Results are given in words; binding and its absence hold for the method and conditions named. Binding can be weak; no strength is given. Sequences can lack the tags named with a protein. For some of these results: In cells and extracts the contact can be indirect. Each block holds one molecule with its values, some of them ahead of it.
What was measured:
[1] = molecular target: T1, Drosophila Lin28, yeast two-hybrid fusion (Drosophila) (UniProt Q9VRN5); test: two-hybrid; Gal4 TAD and LexA DBD fusions in yeast strain YPH500 with the lexAop-LacZ reporter pSH18-34; X-gal plates and beta-galactosidase liquid assay
T1 sequence: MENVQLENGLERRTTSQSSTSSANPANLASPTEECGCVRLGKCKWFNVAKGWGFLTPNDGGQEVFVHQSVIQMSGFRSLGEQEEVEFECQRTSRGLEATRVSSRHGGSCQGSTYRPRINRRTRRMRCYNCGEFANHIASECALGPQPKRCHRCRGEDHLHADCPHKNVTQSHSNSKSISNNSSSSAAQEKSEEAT

[2] = molecular target: T2, HA-tagged Lin28 (Drosophila) (UniProt Q9VRN5); test: co-IP; S2 cells co-transfected with HA-Lin28 and FLAG-Imp, lysed in RIPA buffer without SDS; precipitation with anti-Flag or anti-HA antibody and Protein A/G beads, western blot with Lin28 or Imp antibody; also after RNase treatment of the lysate (100 ug/ml, 30 minutes)
T2 sequence: T1 sequence

[3] = molecular target: Drosophila IGF2 mRNA binding protein (Imp), yeast two-hybrid fusion (Drosophila); test: two-hybrid; Gal4 TAD and LexA DBD fusions in yeast strain YPH500 with the lexAop-LacZ reporter pSH18-34; X-gal plates and beta-galactosidase liquid assay
[4] = molecular target: Flag-tagged Imp (Drosophila); test: co-IP; S2 cells co-transfected with HA-Lin28 and FLAG-Imp, lysed in RIPA buffer without SDS; precipitation with anti-Flag or anti-HA antibody and Protein A/G beads, western blot with Lin28 or Imp antibody; also after RNase treatment of the lysate (100 ug/ml, 30 minutes)

Molecule: Drosophila IGF2 mRNA binding protein (Imp), yeast two-hybrid fusion
- binding [1]: binds

Molecule: Flag-tagged Imp (Drosophila)
- binding [2]: binds

Other lines, results leading:

- binding [3]: binds
B1: Drosophila Lin28, yeast two-hybrid fusion (protein, UniProt Q9VRN5 1-195)
chain: T1 sequence

- binding [4]: binds
B2: HA-tagged Lin28 (protein, UniProt Q9VRN5 1-195)
chain: T1 sequence

— paper PMC9484684
